These are yes or no findings as the source states them, for the method shown. In cells and extracts the contact can be indirect. Some results given as binding are weak or reduced against the parent protein; the word gives no strength. One block for each binder: values may come before it.
Key:
[1] = biological target: leucine-rich repeat-containing receptor LGR5 (human) (UniProt O75473); test: FRET or BRET; type-3 BRET: GFP2- and Rluc-tagged copies (12:1 pGFP2:pRluc) in HEK293T cells with untagged competitor or blank pU vector (2:1 pU:(pGFP2+pRluc)); p^diff tells whether BRETeff is affected by the competitor
[2] = biological target: leucine-rich repeat-containing receptor LGR5 (human) (UniProt O75473); test: FRET or BRET; type-1 BRET: GFP2- and Rluc-tagged copies of the receptor co-expressed in HEK293T cells, acceptor:donor ratio varied at constant expression; data fitted to monomer versus dimer models (R^2); read 24 hr (some 48 hr) post-transfection
[3] = biological target: CrlC (Dictyostelium discoideum) (UniProt Q6UUW6); test: FRET or BRET; type-3 BRET: GFP2- and Rluc-tagged copies (12:1 pGFP2:pRluc) in HEK293T cells with untagged competitor or blank pU vector (2:1 pU:(pGFP2+pRluc)); p^diff tells whether BRETeff is affected by the competitor
[4] = biological target: CrlC (Dictyostelium discoideum) (UniProt Q6UUW6); test: FRET or BRET; type-1 BRET: GFP2- and Rluc-tagged copies of the receptor co-expressed in HEK293T cells, acceptor:donor ratio varied at constant expression; data fitted to monomer versus dimer models (R^2); read 24 hr (some 48 hr) post-transfection
[5] = biological target: FZD9 (human) (UniProt O00144); test: FRET or BRET; type-3 BRET: GFP2- and Rluc-tagged copies (12:1 pGFP2:pRluc) in HEK293T cells with untagged competitor or blank pU vector (2:1 pU:(pGFP2+pRluc)); p^diff tells whether BRETeff is affected by the competitor
[6] = biological target: FZD9 (human) (UniProt O00144); test: FRET or BRET; type-1 BRET: GFP2- and Rluc-tagged copies of the receptor co-expressed in HEK293T cells, acceptor:donor ratio varied at constant expression; data fitted to monomer versus dimer models (R^2); read 24 hr (some 48 hr) post-transfection
[7] = biological target: CarB (Dictyostelium discoideum) (UniProt P34907); test: FRET or BRET; type-3 BRET: GFP2- and Rluc-tagged copies (12:1 pGFP2:pRluc) in HEK293T cells with untagged competitor or blank pU vector (2:1 pU:(pGFP2+pRluc)); p^diff tells whether BRETeff is affected by the competitor
[8] = biological target: CarB (Dictyostelium discoideum) (UniProt P34907); test: FRET or BRET; type-1 BRET: GFP2- and Rluc-tagged copies of the receptor co-expressed in HEK293T cells, acceptor:donor ratio varied at constant expression; data fitted to monomer versus dimer models (R^2); read 24 hr (some 48 hr) post-transfection
[9] = biological target: FZD10 (human) (UniProt Q9ULW2); test: FRET or BRET; type-3 BRET: GFP2- and Rluc-tagged copies (12:1 pGFP2:pRluc) in HEK293T cells with untagged competitor or blank pU vector (2:1 pU:(pGFP2+pRluc)); p^diff tells whether BRETeff is affected by the competitor
[10] = biological target: FZD10 (human) (UniProt Q9ULW2); test: FRET or BRET; type-1 BRET: GFP2- and Rluc-tagged copies of the receptor co-expressed in HEK293T cells, acceptor:donor ratio varied at constant expression; data fitted to monomer versus dimer models (R^2); read 24 hr (some 48 hr) post-transfection

binding [5]: binds
binding [6]: binds
B3: FZD9 (receptor, UniProt O00144 23-591)
chain: LEIGRFDPERGRGAAPCQAVEIPMCRGIGYNLTRMPNLLGHTSQGEAAAELAEFAPLVQYGCHSHLRFFLCSLYAPMCTDQVSTPIPACRPMCEQARLRCAPIMEQFNFGWPDSLDCARLPTRNDPHALCMEAPENATAGPAEPHKGLGMLPVAPRPARPPGDLGPGAGGSGTCENPEKFQYVEKSRSCAPRCGPGVEVFWSRRDKDFALVWMAVWSALCFFSTAFTVLTFLLEPHRFQYPERPIIFLSMCYNVYSLAFLIRAVAGAQSVACDQEAGALYVIQEGLENTGCTLVFLLLYYFGMASSLWWVVLTLTWFLAAGKKWGHEAIEAHGSYFHMAAWGLPALKTIVILTLRKVAGDELTGLCYVASTDAAALTGFVLVPLSGYLVLGSSFLLTGFVALFHIRKIMKTGGTNTEKLEKLMVKIGVFSILYTVPATCVIVCYVYERLNMDFWRLRATEQPCAAAAGPGGRRDCSLPGGSVPTVAVFMLKIFMSLVVGITSGVWVWSSKTFQTWQSLCYRKIAAGRARAKACRAPGSYGRGTHCHYKAPTVVLHMTKTDPSLENPTHL

binding [9]: binds
binding [10]: binds
B5: FZD10 (receptor, UniProt Q9ULW2 21-581)
chain: ISSMDMERPGDGKCQPIEIPMCKDIGYNMTRMPNLMGHENQREAAIQLHEFAPLVEYGCHGHLRFFLCSLYAPMCTEQVSTPIPACRVMCEQARLKCSPIMEQFNFKWPDSLDCRKLPNKNDPNYLCMEAPNNGSDEPTRGSGLFPPLFRPQRPHSAQEHPLKDGGPGRGGCDNPGKFHHVEKSASCAPLCTPGVDVYWSREDKRFAVVWLAIWAVLCFFSSAFTVLTFLIDPARFRYPERPIIFLSMCYCVYSVGYLIRLFAGAESIACDRDSGQLYVIQEGLESTGCTLVFLVLYYFGMASSLWWVVLTLTWFLAAGKKWGHEAIEANSSYFHLAAWAIPAVKTILILVMRRVAGDELTGVCYVGSMDVNALTGFVLIPLACYLVIGTSFILSGFVALFHIRRVMKTGGENTDKLEKLMVRIGLFSVLYTVPATCVIACYFYERLNMDYWKILAAQHKCKMNNQTKTLDCLMAASIPAVEIFMVKIFMLLVVGITSGMWIWTSKTLQSWQQVCSRRLKKKSRRKPASVITSGGIYKKAQHPQKTHHGKYEIPAQSPTCV

The next lines start with the binder.

B1: leucine-rich repeat-containing receptor LGR5 (receptor, UniProt O75473 22-907)
chain: GSSPRSGVLLRGCPTHCHCEPDGRMLLRVDCSDLGLSELPSNLSVFTSYLDLSMNNISQLLPNPLPSLRFLEELRLAGNALTYIPKGAFTGLYSLKVLMLQNNQLRHVPTEALQNLRSLQSLRLDANHISYVPPSCFSGLHSLRHLWLDDNALTEIPVQAFRSLSALQAMTLALNKIHHIPDYAFGNLSSLVVLHLHNNRIHSLGKKCFDGLHSLETLDLNYNNLDEFPTAIRTLSNLKELGFHSNNIRSIPEKAFVGNPSLITIHFYDNPIQFVGRSAFQHLPELRTLTLNGASQITEFPDLTGTANLESLTLTGAQISSLPQTVCNQLPNLQVLDLSYNLLEDLPSFSVCQKLQKIDLRHNEIYEIKVDTFQQLLSLRSLNLAWNKIAIIHPNAFSTLPSLIKLDLSSNLLSSFPITGLHGLTHLKLTGNHALQSLISSENFPELKVIEMPYAYQCCAFGVCENAYKISNQWNKGDNSSMDDLHKKDAGMFQAQDERDLEDFLLDFEEDLKALHSVQCSPSPGPFKPCEHLLDGWLIRIGVWTIAVLALTCNALVTSTVFRSPLYISPIKLLIGVIAAVNMLTGVSSAVLAGVDAFTFGSFARHGAWWENGVGCHVIGFLSIFASESSVFLLTLAALERGFSVKYSAKFETKAPFSSLKVIILLCALLALTMAAVPLLGGSKYGASPLCLPLPFGEPSTMGYMVALILLNSLCFLMMTIAYTKLYCNLDKGDLENIWDCSMVKHIALLLFTNCILNCPVAFLSFSSLINLTFISPEVIKFILLVVVPLPACLNPLLYILFNPHFKEDLVSLRKQTYVWTRSKHPSLMSINSDDVEKQSCDSTQALVTFTSSSITYDLPPSSVPSPAYPVTESCHLSSVAFVPCL
binding [1]: binds
binding [2]: binds

B2: CrlC (receptor, UniProt Q6UUW6 1-361)
chain: MGIEESQICNPSDREFLSVDILNIVTSSLSLMGSALTIISYIWKKVRRHRIQKQQIQQQQQQIEKGGLLSSSITIGNGSSHYGGIGGGGGSGNGTGIGAIGGPHGTYKQPTSKLPLLIFMLSIADFFTSFFIIISQSYLINNSKSYSTPYSPDLKIHFSPCIILRAIIQFFFLSTFFWTTCISYYLFHQLSSPGEEKYLLAIFNVVSWGIPFAISMVITMTNSIVVNSDGWCEVAKPMELSLWFLPLFLCLLVCSIYYFRLRRLFRSKFEYRLQINDRLKQLDSTISRRLTLYIVVFVICWLPDVIQHFISFFSKCTFFPLLILQNILTPSQGFWNFWIYSYTNKIARFTPSNDENKRLLQ
binding [3]: no binding
binding [4]: no binding

B4: CarB (receptor, UniProt P34907 1-375)
chain: MTIMSDIIAQRTILLIADFSSIIGCSLVLIGFWRLKLLRNHITKIISLFCATSLFKDVISTIITLLYKPDQTESGFPCYLHAIVITFGSLACWLWTLMLSFSIYNLIVRREPEPERFEKFYFCLCYGLPLISTIVMLSTHIIQPVGGWCWIGDNYDGYRFGLFYGPFFFIWGTSAILVGLTSKYTYSVIRSSVSDNKDKHMTYQFKLINYIVVFLVCWVFAIVNRILNGLNQFPTVPNVLHTYFSVSHGFYASITFIYNNPLMWRYFGAKFLLIFSKFGLFVQAQQRLELNKNNNNPSPIMRSKNALDNGADSSVVELPCLSKADSLSLDAENNIETPKENENQNHHHHHHHHHHHNHYNNNNNNNNINNKNDMI
binding [7]: no binding
binding [8]: no binding
